PubChem BioAssay AID686937, Drosophila RNAi Screening Center, 2013

- Screen: 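Knock-downs that reduce output of a secreted reporter enzyme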 (primary screen)
- Cell system: Drosophila S2 cells expressing secreted horseradish peroxidase
- Reagents: long dsRNA against Drosophila genes
- Time to read-out: about 5.5 days (5 days dsRNA, then 12 h reporter induction)
- Treatment: reporter expression induced after 5 days of dsRNA, read 12 h later; inducer not stated
- Measured: 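After 5 days of dsRNA and 12 h of reporter induction, medium peroxidase read by chemiluminescence and scored as per-plate z-score; higher values mean more reporter released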
- Reading the numbers: z-score: higher = more reporter secreted into medium
In all, the deposit lists about 23,000 reagents; shown is a random part of those that have a named target and a result. 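Reduced-secretion tags in replicate 1 do not always agree with the z-scores; no criterion for assigning the tags was given.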 Names joined by + are all predicted targets of the reagent. Reagent sequences are not shown. Not stated in the record: the amount of reagent.

| Gene | dsRNA | z-score, replicate 1 | z-score, replicate 2 | z-score, replicate 3 | z-score, replicate 4 | phenotype, replicate 1 |
| --- | --- | --- | --- | --- | --- | --- |
| RunxA | DRSC20400 | 0.17 | 0.29 | – | – | – |
| RunxA | DRSC20498 | -2.39 | -3.4 | – | – | reduced secretion |
| RunxA | DRSC20524 | 0.63 | 0.34 | 0.27 | 0.32 | – |
| RunxA | DRSC21915 | 0.66 | -0.21 | – | – | – |
| Hex-C | DRSC07079 | -0.18 | -0.01 | – | – | – |
| Taldo | DRSC04320 | 0.28 | 0.26 | – | – | – |
| Cdk8 | DRSC11113 | -0.12 | -0.1 | – | – | – |
| CG8353 | DRSC03084 | -0.1 | 0.15 | – | – | – |
| CG18336 | DRSC06334 | 0.16 | -0.01 | – | – | – |
| CG8292 | DRSC03082 | 0.23 | 0.4 | – | – | – |
| CG12069 | DRSC14470 | 0.47 | 0.27 | – | – | – |
| Ype | DRSC20301 | 0.48 | 0.33 | – | – | – |
| CG3916 | DRSC15520 | 0.33 | 0.06 | – | – | – |
| CR42546 | DRSC03711 | 0.16 | 0.3 | – | – | – |
| CG6171 | DRSC15982 | 0.32 | 0.33 | – | – | – |
| CG31523 | DRSC12009 | 0.71 | -0.04 | – | – | – |
| CG31523 | DRSC12337 | 0.39 | 0.38 | 1.1 | 1.21 | – |
| Lcp65Af | DRSC11213 | 0.32 | 0.46 | – | – | – |
| CG1571 | DRSC18068 | 0.58 | -0.04 | – | – | – |
| CG43386 | DRSC17980 | 0.33 | 0.13 | – | – | – |
| CG33172 | DRSC21793 | -0.68 | -0.16 | – | – | – |
| HP1b | DRSC18418 | 0.47 | -0.19 | – | – | – |
| Mpi | DRSC16417 | 0.01 | 0.49 | – | – | – |
| CG43131 | DRSC12046 | 0.46 | 0.53 | 0.21 | 0.27 | – |
| CG17375 | DRSC02614 | 0.17 | 0.18 | – | – | – |
| robo1 | DRSC04712 | 0.2 | 0.12 | – | – | – |
| CG7706 | DRSC16295 | 0.29 | 0.36 | – | – | – |
| CG33128 | DRSC00294 | 0.11 | 0.38 | 1.64 | 1.65 | – |
| clt | DRSC04621 | -0.37 | 0.27 | – | – | – |
| w-cup | DRSC03048 | 0.1 | 0.36 | – | – | – |
| sol | DRSC20587 | 0.16 | 0.06 | – | – | – |
| CG5026 | DRSC10470 | 0.11 | 0.13 | – | – | – |
| 7B2 | DRSC11991 | 0.31 | 0.67 | – | – | – |
| Prosalpha4T2 | DRSC04643 | 0.2 | 0.23 | – | – | – |
| Cdk9 | DRSC04601 | -5.42 | -6.98 | – | – | reduced secretion |
| babo | DRSC07581 | 0.22 | 0.02 | – | – | – |
| hyd | DRSC16971 | 0.43 | 0.17 | – | – | – |
| CG5597 | DRSC04517 | 0.37 | 0.44 | – | – | – |
| CG4627 | DRSC06873 | -0.05 | 0.1 | – | – | – |
| Eig71Ec | DRSC11150 | 0.26 | 0.42 | – | – | – |
| Cpr5C | DRSC18340 | -0.57 | 0.36 | 0.45 | -0.08 | – |
| lin-28 | DRSC10261 | -0.01 | 0.16 | – | – | – |
| Hr38 | DRSC03345 | 0.64 | 0.32 | – | – | – |
| CG13510 | DRSC04152 | 0.25 | 0.37 | – | – | – |
| CG30491 | DRSC21472 | 0.24 | 0.17 | – | – | – |
| CG7556 | DRSC20052 | -1.87 | -2.49 | – | – | reduced secretion |
| CR43999 (retired record) | DRSC14605 | 0.33 | 0.44 | – | – | – |
| CG9395 | DRSC03218 | 0.67 | 0.45 | – | – | – |

Not a retest: an excerpt of the list.
| Gene | dsRNA | z-score, replicate 1 | z-score, replicate 2 | z-score, replicate 3 | z-score, replicate 4 | phenotype, replicate 1 |
| --- | --- | --- | --- | --- | --- | --- |
| CG7556 | DRSC20052 | -1.87 | -2.49 | – | – | reduced secretion |
| CR43999 (retired record) | DRSC14605 | 0.33 | 0.44 | – | – | – |
| CG9395 | DRSC03218 | 0.67 | 0.45 | – | – | – |

Further results follow.
| Gene | dsRNA | z-score, replicate 1 | z-score, replicate 2 | z-score, replicate 3 | z-score, replicate 4 | phenotype, replicate 1 |
| --- | --- | --- | --- | --- | --- | --- |
| amx | DRSC18736 | 0.12 | -0.25 | – | – | – |
| spri | DRSC17846 | -0.42 | -0.68 | – | – | – |
| spri | DRSC17984 | 0.33 | 0.55 | – | – | – |
| spri | DRSC17985 | 0.51 | 0.61 | – | – | – |
| spri | DRSC17986 | 0.41 | 0.83 | – | – | – |
| spri | DRSC17988 | 0.49 | 0.38 | – | – | – |
| spri | DRSC17989 | 0.45 | 0.37 | – | – | – |
| spri | DRSC22927 | -0.95 | -0.94 | – | – | reduced secretion |
| Ir51b | DRSC05540 | 0.34 | 0.06 | – | – | – |
| Tina-1 | DRSC04317 | 0.45 | 0.29 | – | – | – |
| tst | DRSC14212 | 0.35 | 0.38 | – | – | – |
| CG14042 + SP555 | DRSC02367 | 0.37 | 0.35 | – | – | – |
| CG14042 + SP555 | DRSC03428 | 0.33 | 0.09 | – | – | – |
| CG32945 | DRSC12014 | 0.43 | -0.09 | – | – | – |
| Top2 | DRSC03459 | 0.81 | -0.78 | – | – | – |
| indra | DRSC08558 | 0.32 | 0.27 | – | – | – |
| prd1 | DRSC15227 | 0.4 | 0.71 | – | – | – |
| Pkd2 | DRSC02962 | -0.2 | 0.36 | – | – | – |
| CR32011 + CR32010 + PlexB + 1 more | DRSC21664 | -0.01 | -0.71 | – | – | – |
| Gr59d | DRSC22553 | -0.27 | 0.04 | – | – | – |
| Spn43Ad | DRSC06770 | 0.09 | 0.05 | – | – | – |
| CG11044 | DRSC06026 | 0.14 | 0.09 | – | – | – |
| AIMP2 | DRSC09877 | 0.38 | 0.41 | – | – | – |
| CG15080 | DRSC06511 | 0.45 | 0.23 | – | – | – |
| Aladin | DRSC18121 | 0.31 | 0.52 | – | – | – |
| CG6712 | DRSC02981 | 0.53 | 0.12 | 0.29 | -0.67 | – |
| CG6712 | DRSC21690 | -0.7 | -0.51 | – | – | – |
| CG32544 | DRSC20033 | 0.33 | 0.37 | – | – | – |
| Prosalpha2 | DRSC16798 | -3.53 | -4.49 | – | – | reduced secretion |
| zyd | DRSC20716 | 0.14 | 0.31 | – | – | – |
| CG10801 | DRSC17761 | -0.36 | -0.55 | – | – | – |
| CR43359 | DRSC03744 | 0.28 | -0.48 | – | – | – |
| sei | DRSC04713 | 0.14 | 0.14 | – | – | – |
| Hr83 | DRSC12521 | 0.16 | 0.21 | – | – | – |
